Measurements as given in patent publication US20200131123A1, “INDOLE-FORMAMIDE DERIVATIVE, PREPARATION METHOD THEREFOR AND USE THEREOF IN MEDICINE” (Jiangsu Hengrui Medicine Co., Ltd., priority 2017, published 2020).
At least one compound was matched to its structure with a doubt left.

Target: T1, RORγ LBD (Homo sapiens, UniProt P51449)
T1 construct: RORγ LBD was diluted with the complete buffer D to a concentration of 1 ng/μL; GST; purchased AB Vector
T1 sequence (P51449 269-508 limits assumed): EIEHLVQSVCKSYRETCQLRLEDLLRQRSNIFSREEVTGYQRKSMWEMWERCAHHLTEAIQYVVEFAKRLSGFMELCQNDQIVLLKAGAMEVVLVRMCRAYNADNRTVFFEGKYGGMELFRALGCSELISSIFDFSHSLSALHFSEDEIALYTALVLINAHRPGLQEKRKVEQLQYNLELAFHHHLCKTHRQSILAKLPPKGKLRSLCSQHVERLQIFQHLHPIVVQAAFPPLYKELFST
Test: LanthaScreen TR-FRET RORγ co-activation system, effect on in vitro activity of RORγ
Type: biochemical
Details: agonist or inverse agonist of RORγ
Experimental: 1. LanthaScreen® TR-FRET RORγ co-activation system (Life Technologies)
A complete buffer D (complete TR-FRET Coregulator) (Life Technologies) was formulated first, containing a final concentration of 5 mM DTT. The final concentration of DMSO was 2%. The test compound was serially diluted to 2× final concentration in the complete buffer D containing 2% of DMSO, and the maximum dose was […]. The test compound was added to the test wells of a 384-well plate (PerkinElmer) in 10 μl/well. Two parallel control wells were set up for each test compound at the same concentration. 4×RORγ LBD (AB Vector) was formulated. RORγ LBD was diluted with the complete buffer D to a concentration of 1 ng/μL, and added to the test wells of 384-well plate in 5 μl/well. The negative control well was 5 μL of complete buffer D without RORγ LBD. A mixed solution comprising 0.6 μM of fluorescein-D22 (4×) and 8 nM of terbium(Tb)-labeled anti-GST antibody (4×) (Life Technologies) was formulated with the complete buffer D, and 5 μL of the mixed solution was added to the 384-well plate. The total reaction system was 20 μL. The 384-well plate was gently shaken on a shaker, and incubated at room temperature in the dark for 2-4 hours.
Fluorescence readings were determined with Tecan Infinite M1000. […] EC50/IC50 value of the test compound was calculated.

CCS(=O)(=O)c1ccc([C@H](CO)NC(=O)c2ccc3c(c2)cc(Cc2ccc(Cl)cc2C(F)(F)F)n3C2CC2)cc1 [Example 11, (R)-2-(4-Chloro-2-(trifluoromethyl)benzyl)-1-cyclopropyl-N-(1-(4-(ethylsulfonyl)phenyl)-2-hydroxyethyl)-1H-indole-5-carboxamide]
Type: Agonist
